Assay results from patent US20170189504A1, “NOVEL PEPTIDES AND COMBINATION OF PEPTIDES FOR USE IN IMMUNOTHERAPY AGAINST VARIOUS CANCERS” (immatics biotechnologies GmbH, priority 2015, published 2017).

Assays:
HLA-A*24 = test: Identification and relative LC-MS quantitation of HLA-A*24-presented tumor-associated peptides on tissue samples (presentation profiles, Tables 14A, 14B, 16, FIG. 1); design: species or system human; key to Presentation score GC / Presentation score NSCLC / Presentation score PCA / Presentation score GB / Presentation score HCC / Presentation score RCC: specifically presented on tumors (++++); very highly over-presented on tumors compared to a panel of normal tissues (+++); highly over-presented on tumors compared to a panel of normal tissues (++); over-presented on tumors compared to a panel of normal tissues (+); details: for Presentation score HCC: hepatocellular carcinoma (N = 15) vs panel of normal tissues (N = 70); for Presentation score NSCLC: non-small cell lung cancer (N = 91) vs panel of normal tissues (N = 70); for Peptide Presentation on cancer entities: Table 14A, HLA-A*24-binding tumor-associated peptides, cancer entities on which the peptide was found presented; for Presentation score PCA: prostate cancer (N = 40) vs panel of normal tissues (N = 70); for Presentation score GB: glioblastoma (N = 18) vs panel of normal tissues (N = 70)
source genes (mRNA) [1] = test: Expression profiling of source genes by in-house RNASeq of tumor and normal tissues (Table 18, FIG. 2); design: species or system human; key: very highly over-expressed in tumors compared to a panel of normal tissues (+++); highly over-expressed in tumors compared to a panel of normal tissues (++); over-expressed in tumors compared to a panel of normal tissues (+); details: source gene of peptide; for Expression score GB: glioblastoma (N = 24) vs panel of normal tissues; for Expression score HCC: hepatocellular carcinoma (N = 15) vs panel of normal tissues; for Expression score NSCLC: non-small cell lung cancer (N = 11) vs panel of normal tissues; for Expression score SCLC: small cell lung cancer (N = 10) vs panel of normal tissues; for Expression score UEC: uterine cancer (N = 10) vs panel of normal tissues; for Expression score NHL: non-Hodgkin lymphoma (N = 10) vs panel of normal tissues
source genes (mRNA) [2] = test: Gene and exon expression of source genes, TCGA tumor samples compared with normal tissue samples (Lonsdale, 2013) (Table 17); design: species or system human; details: for Over-expression category of source gene (target coverage), BLCA: BLCA = Bladder urothelial carcinoma (N = 408); for Over-expression category of source gene (target coverage), BRCA: BRCA = Breast cancer (N = 1104), tumors more than 2-fold above highest 75% percentile of normal tissues; for Over-expression category of source gene (target coverage), CHOL: CHOL = Cholangiocarcinoma (N = 36); for Over-expression category of source gene (target coverage), COAD: COAD = Colon and rectal adenocarcinoma (N = 462); for Over-expression category of source gene (target coverage), DLBC: DLBC = Lymphoid neoplasm diffuse large B-cell lymphoma (N = 48); for Over-expression category of source gene (target coverage), ESCA: ESCA = Esophageal cancer (N = 185); for Over-expression category of source gene (target coverage), GBM: GBM = Glioblastoma multiforme (N = 169); for Over-expression category of source gene (target coverage), KIRP: KIRP = Papillary kidney carcinoma (N = 291); for Over-expression category of source gene (target coverage), LAML: LAML = Acute Myeloid Leukemia (N = 173); for Over-expression category of source gene (target coverage), LGG: LGG = Lower grade glioma (N = 534); for Over-expression category of source gene (target coverage), LIHC: LIHC = Liver hepatocellular carcinoma (N = 374); for Over-expression category of source gene (target coverage), LUAD: LUAD = Lung adenocarcinoma (N = 517); for Over-expression category of source gene (target coverage), LUSC: LUSC = Lung squamous cell carcinoma (N = 503); for Over-expression category of source gene (target coverage), OV: OV = Ovarian serous cystadenocarcinoma (N = 309); for Over-expression category of source gene (target coverage), PRAD: PRAD = Prostate adenocarcinoma (N = 498); for Over-expression category of source gene (target coverage), READ: READ = Colon and rectal adenocarcinoma (N = 167); for Over-expression category of source gene (target coverage), SKCM: SKCM = Skin cutaneous melanoma (N = 473); for Over-expression category of source gene (target coverage), STAD: STAD = Stomach adenocarcinoma (N = 415); for Over-expression category of source gene (target coverage), UCEC: UCEC = Uterine corpus endometrial carcinoma (N = 546)

| Substance | Presentation score HCC (HLA-A*24; HLA-A*24 peptides) | Presentation score NSCLC (HLA-A*24; HLA-A*24 peptides) | Peptide Presentation on cancer entities (HLA-A*24) | Expression score GB (source genes (mRNA) [1]) | Expression score HCC (source genes (mRNA) [1]) | Expression score NSCLC (source genes (mRNA) [1]) | Expression score SCLC (source genes (mRNA) [1]) | Expression score UEC (source genes (mRNA) [1]) | Over-expression category of source gene (target coverage), BLCA (source genes (mRNA) [2]; same cutoff) | Over-expression category of source gene (target coverage), BRCA (source genes (mRNA) [2]) | Over-expression category of source gene (target coverage), CHOL (source genes (mRNA) [2]; same cutoff) | Over-expression category of source gene (target coverage), DLBC (source genes (mRNA) [2]; same cutoff) | Over-expression category of source gene (target coverage), ESCA (source genes (mRNA) [2]; same cutoff) | Over-expression category of source gene (target coverage), GBM (source genes (mRNA) [2]; same cutoff) | Over-expression category of source gene (target coverage), LAML (source genes (mRNA) [2]; same cutoff) | Over-expression category of source gene (target coverage), LGG (source genes (mRNA) [2]; same cutoff) | Over-expression category of source gene (target coverage), LIHC (source genes (mRNA) [2]; same cutoff) | Over-expression category of source gene (target coverage), LUAD (source genes (mRNA) [2]; same cutoff) | Over-expression category of source gene (target coverage), LUSC (source genes (mRNA) [2]; same cutoff) | Over-expression category of source gene (target coverage), SKCM (source genes (mRNA) [2]; same cutoff) | other results |
| --- | --- | --- | --- | --- | --- | --- | --- | --- | --- | --- | --- | --- | --- | --- | --- | --- | --- | --- | --- | --- | --- |
| 180: peptide found in UGGT1 (gene looked up) (IYDDSFIRPVTF; listed as Homo sapiens) [compound 180] | ++++ | ++++ | NSCLC, HCC | + | + | + | + | + | B (>= 20% of tumors above the cutoff, but <50%) | A (>=50% of tumors above the cutoff) | B (>= 20% of tumors above the cutoff, but <50%) | C (>=5% of tumors above the cutoff, but <20%) | A (>=50% of tumors above the cutoff) | A (>=50% of tumors above the cutoff) | A (>=50% of tumors above the cutoff) | B (>= 20% of tumors above the cutoff, but <50%) | B (>= 20% of tumors above the cutoff, but <50%) | A (>=50% of tumors above the cutoff) | A (>=50% of tumors above the cutoff) | A (>=50% of tumors above the cutoff) | Expression score CRC (source genes (mRNA) [1]; colorectal cancer (N = 20) vs panel of normal tissues): +; Expression score GBC_CCC (source genes (mRNA) [1]; gallbladder adenocarcinoma and cholangiocarcinoma (N = 3) vs panel of normal tissues): +; Expression score GC (source genes (mRNA) [1]; gastric cancer (N = 11) vs panel of normal tissues): +; Expression score PC (source genes (mRNA) [1]; pancreatic cancer (N = 26) vs panel of normal tissues): +; Over-expression category of source gene (target coverage), COAD (source genes (mRNA) [2]; same cutoff): A (>=50% of tumors above the cutoff); Over-expression category of source gene (target coverage), KICH (source genes (mRNA) [2]; KICH = Kidney chromophobe (N = 66), same cutoff): C (>=5% of tumors above the cutoff, but <20%); Over-expression category of source gene (target coverage), KIRC (source genes (mRNA) [2]; KIRC = Clear cell kidney carcinoma (N = 534), same cutoff): B (>= 20% of tumors above the cutoff, but <50%); Over-expression category of source gene (target coverage), KIRP (source genes (mRNA) [2]; same cutoff): B (>= 20% of tumors above the cutoff, but <50%); Over-expression category of source gene (target coverage), OV (source genes (mRNA) [2]; same cutoff): A (>=50% of tumors above the cutoff); Over-expression category of source gene (target coverage), PAAD (source genes (mRNA) [2]; PAAD = Pancreatic ductal adenocarcinoma (N = 179), same cutoff): B (>= 20% of tumors above the cutoff, but <50%); Over-expression category of source gene (target coverage), PRAD (source genes (mRNA) [2]; same cutoff): B (>= 20% of tumors above the cutoff, but <50%); Over-expression category of source gene (target coverage), READ (source genes (mRNA) [2]; same cutoff): A (>=50% of tumors above the cutoff); Over-expression category of source gene (target coverage), STAD (source genes (mRNA) [2]; same cutoff): A (>=50% of tumors above the cutoff); Over-expression category of source gene (target coverage), UCEC (source genes (mRNA) [2]; same cutoff): B (>= 20% of tumors above the cutoff, but <50%) |
| 183: peptide found in CD96 (gene looked up) (VFTSTARAF; listed as Homo sapiens) [compound 183] |  | ++++ | NSCLC, PCA |  |  |  |  |  |  |  |  | C (>=5% of tumors above the cutoff, but <20%) |  |  | A (>=50% of tumors above the cutoff) |  |  |  |  |  | Presentation score PCA (HLA-A*24; HLA-A*24 peptides): ++++; Expression score AML (source genes (mRNA) [1]; acute myeloid leukemia (N = 11) vs panel of normal tissues): ++; Expression score NHL (source genes (mRNA) [1]): + |
| 187: peptide found in CCNE1 (gene looked up) (TYLRDQHFL; listed as Homo sapiens) [compound 187] | ++++ | ++++ | GC, NSCLC, HCC |  |  | + | ++ | + | A (>=50% of tumors above the cutoff) | C (>=5% of tumors above the cutoff, but <20%) | C (>=5% of tumors above the cutoff, but <20%) | A (>=50% of tumors above the cutoff) | B (>= 20% of tumors above the cutoff, but <50%) | C (>=5% of tumors above the cutoff, but <20%) | B (>= 20% of tumors above the cutoff, but <50%) |  | C (>=5% of tumors above the cutoff, but <20%) | C (>=5% of tumors above the cutoff, but <20%) | B (>= 20% of tumors above the cutoff, but <50%) | C (>=5% of tumors above the cutoff, but <20%) | Presentation score GC (HLA-A*24; HLA-A*24 peptides, gastric cancer (N = 44) vs panel of normal tissues (N = 70)): ++++; Expression score OSCAR (source genes (mRNA) [1]; esophageal cancer incl. gastric-esophageal junction (N = 11) vs panel of normal tissues): +; Expression score NHL (source genes (mRNA) [1]): +; Expression score OC (source genes (mRNA) [1]; ovarian cancer (N = 12) vs panel of normal tissues): +++; Expression score UBC (source genes (mRNA) [1]; urinary bladder cancer (N = 10) vs panel of normal tissues): +; Over-expression category of source gene (target coverage), COAD (source genes (mRNA) [2]; same cutoff): B (>= 20% of tumors above the cutoff, but <50%); Over-expression category of source gene (target coverage), OV (source genes (mRNA) [2]; same cutoff): A (>=50% of tumors above the cutoff); Over-expression category of source gene (target coverage), READ (source genes (mRNA) [2]; same cutoff): B (>= 20% of tumors above the cutoff, but <50%); Over-expression category of source gene (target coverage), STAD (source genes (mRNA) [2]; same cutoff): B (>= 20% of tumors above the cutoff, but <50%); Over-expression category of source gene (target coverage), UCEC (source genes (mRNA) [2]; same cutoff): A (>=50% of tumors above the cutoff) |
| 188: peptide found in DCLK2 (gene looked up) (RYFKGLVF; listed as Homo sapiens) [compound 188] |  |  |  | +++ |  |  |  |  |  |  |  |  |  | A (>=50% of tumors above the cutoff) |  | A (>=50% of tumors above the cutoff) |  |  |  |  | Presentation score GB (HLA-A*24; HLA-A*24 peptides): ++++ |
| 189: peptide found in TRPM8 (gene looked up) (WYVNGVNYF; listed as Homo sapiens) [compound 189] |  | ++++ | NSCLC, PCA | + | ++ |  | +++ |  |  |  | C (>=5% of tumors above the cutoff, but <20%) |  |  |  |  |  | C (>=5% of tumors above the cutoff, but <20%) | C (>=5% of tumors above the cutoff, but <20%) |  | C (>=5% of tumors above the cutoff, but <20%) | Presentation score PCA (HLA-A*24; HLA-A*24 peptides): ++++; Expression score PCA (source genes (mRNA) [1]; prostate cancer and benign prostate hyperplasia (N = 5) vs panel of normal tissues): +++; Over-expression category of source gene (target coverage), KIRP (source genes (mRNA) [2]; same cutoff): C (>=5% of tumors above the cutoff, but <20%); Over-expression category of source gene (target coverage), PRAD (source genes (mRNA) [2]; same cutoff): A (>=50% of tumors above the cutoff) |
| 191: peptide found in PTPRZ1 (gene looked up) (VFKASKITF; listed as Homo sapiens) [compound 191] |  |  |  | +++ |  |  |  |  |  |  |  |  | C (>=5% of tumors above the cutoff, but <20%) | A (>=50% of tumors above the cutoff) |  | A (>=50% of tumors above the cutoff) |  |  | C (>=5% of tumors above the cutoff, but <20%) | C (>=5% of tumors above the cutoff, but <20%) | Presentation score GB (HLA-A*24; HLA-A*24 peptides): ++++ |

For some assays here: Expression grades refer to the transcript from which the peptide derives; gene names, where given, were looked up from the sequence.
